Measurements reported in US20240350492A1, “Methods for the Prevention and Treatment of Hearing Loss” (Ting Therapeutics LLC, priority 2020, published 2024).

Tested on: HEI-OC1 cells
Experiment: Caspase-Glo 3/7 assay in cisplatin-treated HEI-OC1 cells
Conditions: HEI-OC1, read-out: calculated IC50, percentage of protection from caspase-3/7 activity

IC50: 14.4 µM
SMILES: O=C(CCCCCCC(=O)Nc1ccccc1)NO [Vorinostat]
